This assay deals with T1, NuMA (1808–2001) of the GST pull-down (human) (UniProt Q14980).
T1 sequence: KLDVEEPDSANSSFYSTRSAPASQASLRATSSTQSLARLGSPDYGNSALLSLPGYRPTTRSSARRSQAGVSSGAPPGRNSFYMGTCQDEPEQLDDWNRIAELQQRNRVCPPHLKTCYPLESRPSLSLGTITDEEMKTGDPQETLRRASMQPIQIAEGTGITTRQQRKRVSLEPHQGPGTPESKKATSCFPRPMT
Put plainly: pull-down; GST-tagged protein (4 μM) on GSH-Sepharose 4B; partners (8 μM; AGS3-L and LGN-TPR at various concentration ratios); 50 mM Tris (pH 8.0), 100 mM NaCl, 1 mM 2-mercaptoethanol, 1 mM EDTA; 1 h at 4°C; Coomassie staining; both purified.

This is an account of results in publication PMC12151148.

These are yes or no findings as the source states them, for the method shown. A result given as binding can be weak or reduced; the word gives no strength. Where a sequence is shown, tags or fusion partners need not be part of it.

Regarding “AGS3-L (−23–405) (mouse) (domain or fragment)”, the binding result was “binds”.

Consider “LGN-TPR (1–409) (mouse) (domain or fragment)”, for which the binding entry is recorded as “binds”.
